Values quoted from earlier work, collected in patent publication US20050143441A1, “Novel medical combination treatment of obesity involving 4,5-dihydro-1H-pyrazole derivatives having CB1-antagonistic activity” (priority 2003, published 2005).
Some of these results come from one statement about several compounds together. For at least one compound, name, drawing or mass did not settle the structure. Some ranges recur; such a range may be that of the whole group of compounds.

System: plasma lipases
Details: relative to THL
For `CCCCCCC[C@@H](C[C@@H]1OC(=O)[C@H]1CCCCCCCC(C)C)OC(=O)CNC=O` [Panclicin C], the “inhibitory activity against plasma lipases, fold greater than THL” value (“inhibitory activity … fold greater than THL” for short) is given as 3-6 fold.
For `CCCCCCCCCC[C@@H]1C(=O)O[C@H]1C[C@H](CCCCCCC)OC(=O)CNC=O` [Panclicin D], the “inhibitory activity … fold greater than THL” value is listed as 3-6 fold.
In the case of `CCCCCCCCCCCC[C@@H]1C(=O)O[C@H]1C[C@H](CCCCCCC)OC(=O)CNC=O` [Panclicin E], the “inhibitory activity … fold greater than THL” value is given as 3-6 fold.
